Assay results published in the supplement of paper PMC8728848.
The list shows a part of the results.

What was measured:
Test in all cases: glycan array binding signal (z-score within array); higher = stronger binding
Details in all cases: glycan notation: IUPAC condensed, linker removed
Gal(a1-3)GalNAc = molecular target: Gal(a1-3)GalNAc
Summary of the method: (§1)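 The binding signal is a Z-score computed within each array. Data were drawn from 3228 arrays in the Consortium for Functional Glycomics database, restricted to those with a known protein sequence. Scores were averaged over arrays of the same protein sequence at different concentrations or buffers, and over linkers, and negative values can be taken as non-binding.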

[1] = molecular target: Gal(a1-3)[Gal(a1-4)]Gal(b1-4)GlcNAc
Summary of the method: as §1

[2] = molecular target: Gal(a1-4)Gal(b1-3)GlcNAc(b1-2)Man(a1-3)[Gal(a1-4)Gal(b1-3)GlcNAc(b1-2)Man(a1-6)]Man(b1-4)GlcNAc(b1-4)GlcNAc
Summary of the method: as §1

Gal(a1-4)Gal(b1-4)Glc = molecular target: Gal(a1-4)Gal(b1-4)Glc
Summary of the method: as §1

Gal(a1-4)Gal(b1-4)GlcNAc = molecular target: Gal(a1-4)Gal(b1-4)GlcNAc
Summary of the method: as §1

[3] = molecular target: Gal(a1-4)Gal(b1-4)GlcNAc(b1-2)Man(a1-3)[Gal(a1-4)Gal(b1-4)GlcNAc(b1-2)Man(a1-6)]Man(b1-4)GlcNAc(b1-4)GlcNAc
Summary of the method: as §1

[4] = molecular target: Gal(a1-4)Gal(b1-4)GlcNAc(b1-3)Gal(b1-4)Glc
Summary of the method: as §1

Gal(a1-4)GlcNAc = molecular target: Gal(a1-4)GlcNAc
Summary of the method: as §1

Gal(a1-6)Glc = molecular target: Gal(a1-6)Glc
Summary of the method: as §1

Gal(b1-2)Gal = molecular target: Gal(b1-2)Gal
Summary of the method: as §1

Gal(b1-3)Gal = molecular target: Gal(b1-3)Gal
Summary of the method: as §1

Gal(b1-3)Gal(b1-4)GlcNAc = molecular target: Gal(b1-3)Gal(b1-4)GlcNAc
Summary of the method: as §1

[5] = molecular target: Gal(b1-3)Gal(b1-4)GlcNAc(b1-2)Man(a1-3)[Gal(b1-3)Gal(b1-4)GlcNAc(b1-2)Man(a1-6)]Man(b1-4)GlcNAc(b1-4)GlcNAc
Summary of the method: as §1

Gal(b1-3)GalNAc = molecular target: Gal(b1-3)GalNAc
Summary of the method: as §1

[6] = molecular target: Gal(b1-3)GalNAc(a1-3)[Fuc(a1-2)]Gal(b1-4)Glc
Summary of the method: as §1

[7] = molecular target: Gal(b1-3)GalNAc(a1-3)[Fuc(a1-2)]Gal(b1-4)GlcNAc
Summary of the method: as §1

[8] = molecular target: Gal(b1-3)GalNAc(b1-3)Gal(a1-4)Gal(b1-4)Glc
Summary of the method: as §1

[9] = molecular target: Gal(b1-3)GalNAc(b1-4)Gal(b1-4)Glc
Summary of the method: as §1

[10] = molecular target: Gal(b1-3)GalNAc(b1-4)[Neu5Ac(a2-3)]Gal(b1-4)Glc
Summary of the method: as §1

Gal(b1-3)GlcNAc = molecular target: Gal(b1-3)GlcNAc
Summary of the method: as §1

[11] = molecular target: Gal(b1-3)GlcNAc(a1-6)Gal(b1-4)GlcNAc
Summary of the method: as §1

[12] = molecular target: Gal(b1-3)GlcNAc(b1-2)Man(a1-3)[Gal(b1-3)GlcNAc(b1-2)Man(a1-6)]Man(b1-4)GlcNAc(b1-4)GlcNAc
Summary of the method: as §1

[13] = molecular target: Gal(b1-3)GlcNAc(b1-2)Man(a1-3)[Gal(b1-3)GlcNAc(b1-2)Man(a1-6)]Man(b1-4)GlcNAc(b1-4)[Fuc(a1-6)]GlcNAc
Summary of the method: as §1

[14] = molecular target: Gal(b1-3)GlcNAc(b1-3)Gal(b1-3)GlcNAc
Summary of the method: as §1

[15] = molecular target: Gal(b1-3)GlcNAc(b1-3)Gal(b1-4)Glc
Summary of the method: as §1

[16] = molecular target: Gal(b1-3)GlcNAc(b1-3)Gal(b1-4)GlcNAc
Summary of the method: as §1

[17] = molecular target: Gal(b1-3)GlcNAc(b1-3)Gal(b1-4)GlcNAc(b1-6)[Gal(b1-3)GlcNAc(b1-3)]Gal(b1-4)Glc
Summary of the method: as §1

[18] = molecular target: Gal(b1-3)GlcNAc(b1-3)Gal(b1-4)[Fuc(a1-3)]GlcNAc(b1-6)[Gal(b1-3)GlcNAc(b1-3)]Gal(b1-4)Glc
Summary of the method: as §1

[19] = molecular target: Gal(b1-3)GlcNAc(b1-3)GalNAc
Summary of the method: as §1

[20] = molecular target: Gal(b1-3)GlcNAc(b1-6)Gal(b1-4)GlcNAc
Summary of the method: as §1

[21] = molecular target: Gal(b1-3)[Fuc(a1-4)]GlcNAc
Summary of the method: as §1

[22] = molecular target: Gal(b1-3)[Fuc(a1-4)]GlcNAc(b1-2)Man(a1-3)[Gal(b1-3)[Fuc(a1-4)]GlcNAc(b1-2)Man(a1-6)]Man(b1-4)GlcNAc(b1-4)GlcNAc
Summary of the method: as §1

[23] = molecular target: Gal(b1-3)[Fuc(a1-4)]GlcNAc(b1-2)Man(a1-3)[Gal(b1-3)[Fuc(a1-4)]GlcNAc(b1-2)Man(a1-6)]Man(b1-4)GlcNAc(b1-4)[Fuc(a1-6)]GlcNAc
Summary of the method: as §1

[24] = molecular target: Gal(b1-3)[Fuc(a1-4)]GlcNAc(b1-3)Gal(b1-3)[Fuc(a1-4)]GlcNAc
Summary of the method: as §1

[25] = molecular target: Gal(b1-3)[Fuc(a1-4)]GlcNAc(b1-3)Gal(b1-4)GlcNAc
Summary of the method: as §1

[26] = molecular target: Gal(b1-3)[Fuc(a1-4)]GlcNAc(b1-3)Gal(b1-4)[Fuc(a1-3)]GlcNAc
Summary of the method: as §1

[27] = molecular target: Gal(b1-3)[GlcNAc(b1-6)]GalNAc
Summary of the method: as §1

[28] = molecular target: Gal(b1-3)[Neu5Ac(a2-6)]GalNAc
Summary of the method: as §1

[29] = molecular target: Gal(b1-3)[Neu5Ac(a2-6)]GlcNAc(b1-6)Gal(b1-4)Glc
Summary of the method: as §1

[30] = molecular target: Gal(b1-3)[Neu5Ac(b2-6)]GalNAc
Summary of the method: as §1

[31] = molecular target: Gal(b1-4)GalNAc(a1-3)[Fuc(a1-2)]Gal(b1-4)GlcNAc
Summary of the method: as §1

[32] = molecular target: Gal(b1-4)GalNAc(b1-3)[Fuc(a1-2)]Gal(b1-4)GlcNAc
Summary of the method: as §1

Gal(b1-4)Glc = molecular target: Gal(b1-4)Glc
Summary of the method: as §1

Gal(b1-4)Glc6S = molecular target: Gal(b1-4)Glc6S
Summary of the method: as §1

Gal(b1-4)GlcNAc = molecular target: Gal(b1-4)GlcNAc
Summary of the method: as §1

B1: Flo10 (Saccharomyces cerevisiae), P36170 (protein)
chain: MPVAARYIFLTGLFLLSVANVALGTTEACLPAGEKKNGMTINFYQYSLKDSSTYSNPSYMAYGYADAEKLGSVSGQTKLSIDYSIPCNGASDTCACSDDDATEYSASQVVPVKRGVKLCSDNTTLSSKTEKRENDDCDQGAAYWSSDLFGFYTTPTNVTVEMTGYFLPPKTGTYTFGFATVDDSAILSVGGNVAFECCKQEQPPITSTDFTINGIKPWNADAPTDIKGSTYMYAGYYYPIKIVYSNAVSWGTLPVSVVLPDGTEVNDDFEGYVFSFDDNATQAHCSVPNPAEHARTCVSSATSSWSSSEVCTECTETESTSYVTPYVTSSSWSSSEVCTECTETESTSTSTPYVTSSSSSSSEVCTECTETESTSYVTPYVSSSTAAANYTSSFSSSSEVCTECTETESTSTSTPYVTSSSWSSSEVCTECTETESTSYVTPYVSSSTAAANYTSSFSSSSEVCTECTETESTSTSTPYVTSSSSSSSEVCTECTETESTSYVTPYVSSSTAAANYTSSFSSSSEVCTECTETESTSTSTPYVTSSSWSSSEVCTECTETESTSYVTPYVSSSTAAANYTSSFSSSSEVCTECTETESTSTSTPYATSSTGTATSFTASTSNTMTSLVQTDTTVSFSLSSTVSEHTNAPTSSVESNASTFISSNKGSVKSYVTSSIHSITPMYPSNQTVTSSSVVSTPITSESSESSASVTILPSTITSEFKPSTMKTKVVSISSSPTNLITSYDTTSKDSTVGSSTSSVSLISSISLPSSYSASSEQIFHSSIVSSNGQALTSFSSTKVSSSESSESHRTSPTTSSESGIKSSGVEIESTSTSSFSFHETSTASTSVQISSQFVTPSSPISTVAPRSTGLNSQTESTNSSKETMSSENSASVMPSSSATSPKTGKVTSDETSSGFSRDRTTVYRMTSETPSTNEQTTLITVSSCESNSCSNTVSSAVVSTATTTINGITTEYTTWCPLSATELTTVSKLESEEKTTLITVTSCESGVCSETASPAIVSTATATVNDVVTVYSTWSPQATNKLAVSSDIENSASKASFVSEAAETKSISRNNNFVPTSGTTSIETHTTTTSNASENSDNVSASEAVSSKSVTNPVLISVSQQPRGTPASSMIGSSTASLEMSSYLGIANHLLTNSGISIFIASLLLAIV
glycan array binding signal (z-score) (Gal(a1-3)GalNAc): -0.515
glycan array binding signal (z-score) [1]: 0.048
glycan array binding signal (z-score) [2]: 0.202
glycan array binding signal (z-score) (Gal(a1-4)Gal(b1-4)Glc): -0.634
glycan array binding signal (z-score) (Gal(a1-4)Gal(b1-4)GlcNAc): -0.408
glycan array binding signal (z-score) [3]: 0.855
glycan array binding signal (z-score) [4]: 1.98
glycan array binding signal (z-score) (Gal(a1-4)GlcNAc): -0.826
glycan array binding signal (z-score) (Gal(a1-6)Glc): -0.443
glycan array binding signal (z-score) (Gal(b1-2)Gal): -0.3
glycan array binding signal (z-score) (Gal(b1-3)Gal): -0.137
glycan array binding signal (z-score) (Gal(b1-3)Gal(b1-4)GlcNAc): -0.919
glycan array binding signal (z-score) [5]: -0.326
glycan array binding signal (z-score) (Gal(b1-3)GalNAc): -0.258
glycan array binding signal (z-score) [6]: 3.64
glycan array binding signal (z-score) [7]: 0.039
glycan array binding signal (z-score) [8]: -0.171
glycan array binding signal (z-score) [9]: -0.568
glycan array binding signal (z-score) [10]: 0.092
glycan array binding signal (z-score) (Gal(b1-3)GlcNAc): 1.29
glycan array binding signal (z-score) [11]: 0.52
glycan array binding signal (z-score) [12]: -0.791
glycan array binding signal (z-score) [13]: -0.507
glycan array binding signal (z-score) [14]: 3.58
glycan array binding signal (z-score) [15]: -0.532
glycan array binding signal (z-score) [16]: 0.23
glycan array binding signal (z-score) [17]: -0.581
glycan array binding signal (z-score) [18]: 0.044
glycan array binding signal (z-score) [19]: 0.31
glycan array binding signal (z-score) [20]: 0.942
glycan array binding signal (z-score) [21]: 0.019
glycan array binding signal (z-score) [22]: 0.49
glycan array binding signal (z-score) [23]: 0.232
glycan array binding signal (z-score) [24]: -0.761
glycan array binding signal (z-score) [25]: -0.612
glycan array binding signal (z-score) [26]: -0.45
glycan array binding signal (z-score) [27]: -0.789
glycan array binding signal (z-score) [28]: -0.655
glycan array binding signal (z-score) [29]: -0.584
glycan array binding signal (z-score) [30]: -0.761
glycan array binding signal (z-score) [31]: 1.26
glycan array binding signal (z-score) [32]: 1.8
glycan array binding signal (z-score) (Gal(b1-4)Glc): 0.534
glycan array binding signal (z-score) (Gal(b1-4)Glc6S): 0.599
glycan array binding signal (z-score) (Gal(b1-4)GlcNAc): 0.297
